In the assay the target is CXCR3 (Homo sapiens, UniProt P49682). The assay is described as follows: CXCR3 cAMP agonist assay (cAMP Hunter CHOK1 CXCR3 Gi cell line, forskolin-stimulated, HitHunter cAMP detection). To be noted: read-out: Activity (CXCR3 cAMP agonist assay compound EC50); cAMP Hunter CHOK1 CXCR3 Gi cells, 20 μM forskolin, 30 minutes. On the procedure: The cAMP Hunter™ CHOK1 CXCR3 Gi cell line was purchased from DiscoveRx. Cells were seeded into a 96-well white assay plate at 50,000 cells/well/94 μl assay buffer (Hank's Buffered Saline Solution, 10 mM HEPES, 0.1% fatty acid-free BSA, pH 7.4) and immediately assayed in suspension. Forskolin was added to 20 μM (5 μl of 400 μM stock) simultaneously with a 12-point dose response curve of compound at 0-10 μM (1 μl of 100× stock in 100% DMSO), and cells were incubated for 30 minutes. A cAMP standard curve is run as an assay control. A CXCL11 dose response was included to determine maximum efficacy. Direct detection of cAMP was carried out using the DiscoveRx HitHunter cAMP kit according to manufacturer's instructions, and luminescence was read using a SpectraMax M5 plate reader.
The CXCR3 cAMP agonist assay compound EC50 is denoted as follows: + denotes activity <0.050++ denotes activity between 0.050 and 0.25+++ denotes activity between 0.25 and 0.5 μM, and ++++ denotes activity >0.5 μM.

By UniProt entry, the sequences of proteins in these tests, tags left out.
UniProt P49682, whole entry: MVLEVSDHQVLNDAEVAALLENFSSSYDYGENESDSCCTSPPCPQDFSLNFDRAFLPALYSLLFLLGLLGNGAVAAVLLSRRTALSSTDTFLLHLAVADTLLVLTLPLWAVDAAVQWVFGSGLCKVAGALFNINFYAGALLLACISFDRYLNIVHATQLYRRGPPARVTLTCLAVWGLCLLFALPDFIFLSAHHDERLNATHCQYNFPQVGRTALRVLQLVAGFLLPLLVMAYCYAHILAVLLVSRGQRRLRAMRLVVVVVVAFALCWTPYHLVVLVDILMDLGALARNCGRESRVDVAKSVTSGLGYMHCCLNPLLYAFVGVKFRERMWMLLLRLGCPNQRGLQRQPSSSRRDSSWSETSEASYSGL

These results are taken from patent publication US11040954B1, “CXCR3 receptor agonists” (RECEPTOS LLC, priority 2016, dated 2021).

pEC50: −log10 of the molar value. The structures given here were assigned with low confidence; some may be wrong.

Broadly, the pEC50 is the negative decadic logarithm of the EC50, by convention in mol/L.

With `Cc1cc(NC(=O)[C@H](CCCCN)NC(=O)[C@@H]2Cc3ccccc3CN2C(=O)CCC(=O)c2ccc(F)cc2)ccc1Cl`, the negative logarithm of the EC50 (pEC50) is 6.60 to 7.30.
